Three substances from article PMC11794584 can be followed below.

By UniProt entry, the sequences of proteins in these tests, tags left out. Where a name states a change or a piece, a line headed by the entry shows the natural chain unless it says otherwise.
UniProt P40763: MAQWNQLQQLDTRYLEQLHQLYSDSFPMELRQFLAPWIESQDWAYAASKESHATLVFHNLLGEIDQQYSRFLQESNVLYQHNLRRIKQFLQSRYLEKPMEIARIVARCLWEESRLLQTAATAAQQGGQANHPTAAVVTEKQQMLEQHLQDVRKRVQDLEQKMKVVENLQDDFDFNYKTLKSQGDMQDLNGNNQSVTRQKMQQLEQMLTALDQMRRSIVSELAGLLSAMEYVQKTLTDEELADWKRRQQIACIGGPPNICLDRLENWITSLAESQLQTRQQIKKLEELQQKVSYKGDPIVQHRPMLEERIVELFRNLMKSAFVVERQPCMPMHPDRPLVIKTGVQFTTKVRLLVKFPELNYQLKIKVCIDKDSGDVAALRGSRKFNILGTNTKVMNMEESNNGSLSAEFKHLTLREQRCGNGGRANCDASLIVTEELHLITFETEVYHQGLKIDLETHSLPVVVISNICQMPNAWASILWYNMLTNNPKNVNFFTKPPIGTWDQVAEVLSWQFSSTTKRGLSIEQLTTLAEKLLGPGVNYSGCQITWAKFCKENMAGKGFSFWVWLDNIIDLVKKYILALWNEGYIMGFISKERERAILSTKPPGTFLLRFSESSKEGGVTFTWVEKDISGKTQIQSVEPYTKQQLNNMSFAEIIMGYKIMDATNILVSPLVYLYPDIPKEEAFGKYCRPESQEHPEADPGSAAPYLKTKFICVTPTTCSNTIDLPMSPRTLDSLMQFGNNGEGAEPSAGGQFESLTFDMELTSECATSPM

These are yes or no findings as the source states them, for the method shown. Binding seen in cells or lysates may run through a third protein. Some entries that bind do so weakly or less than the wild type. For part of these data: Sequences can lack the tags named with a protein.

The target of assay [1] is T1, Cell division cycle associated 7 (CDCA7) (human (endogenous in PC cells)) (UniProt Q9BWT1).
T1 sequence: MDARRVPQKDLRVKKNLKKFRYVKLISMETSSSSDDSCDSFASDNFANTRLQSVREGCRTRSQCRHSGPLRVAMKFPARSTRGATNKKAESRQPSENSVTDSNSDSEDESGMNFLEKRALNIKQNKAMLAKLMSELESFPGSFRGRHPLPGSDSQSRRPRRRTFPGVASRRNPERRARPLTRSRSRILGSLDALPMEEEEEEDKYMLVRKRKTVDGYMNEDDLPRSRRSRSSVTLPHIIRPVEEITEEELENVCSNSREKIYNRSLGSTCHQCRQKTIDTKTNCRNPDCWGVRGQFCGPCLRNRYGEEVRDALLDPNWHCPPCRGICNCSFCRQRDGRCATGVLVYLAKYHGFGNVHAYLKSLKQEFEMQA
Description: co-IP; PC cell proteins incubated overnight at 4 °C with anti-CDCA7 antibody, protein A + G beads 2 h, western blotting.

Assay [2] deals with T2, flag-tagged CDCA7 D1 (1-120aa) domain (UniProt Q9BWT1).
T2 sequence: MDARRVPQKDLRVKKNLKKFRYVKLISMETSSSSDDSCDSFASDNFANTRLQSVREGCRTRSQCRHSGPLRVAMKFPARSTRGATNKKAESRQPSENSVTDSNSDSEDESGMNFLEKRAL
Nature of the assay: co-IP; immunoprecipitation and western blotting of flag-tagged truncated CDCA7 and his-tagged STAT3 in HEK 293T.

Assay [3] concerns the target T3, flag-tagged CDCA7 protein (UniProt Q9BWT1).
T3 sequence: T1 sequence
The assay is described as above.

As for “Signal transducer and activator of transcription 3 (STAT3) (from UniProt P40763 1-770)”, the binding result in assay [1] is “binds”.
For “his-tagged STAT3 protein (from UniProt P40763 1-770)”, the binding result in assay [2] was “binds”.
Turning to “his-tagged STAT3 D1 (1-385aa) domain (from UniProt P40763 1-385) (domain or fragment)”, the binding entry in assay [3] is reported as “binds”.
